Results are given in words; binding and its absence hold for the method and conditions named. Binding seen in cells or lysates may run through a third protein. Some binding calls cover weakened binding; strength is not graded here.
Biological target: STING (UniProt Q86WV6)
Assay: co-IP; BHK-21 cells cotransfected with the indicated plasmids for 24 h; anti-myc or anti-Flag magnetic beads; Western blot

Amino acid sequences for entries named in this document (tags omitted).
UniProt Q86WV6: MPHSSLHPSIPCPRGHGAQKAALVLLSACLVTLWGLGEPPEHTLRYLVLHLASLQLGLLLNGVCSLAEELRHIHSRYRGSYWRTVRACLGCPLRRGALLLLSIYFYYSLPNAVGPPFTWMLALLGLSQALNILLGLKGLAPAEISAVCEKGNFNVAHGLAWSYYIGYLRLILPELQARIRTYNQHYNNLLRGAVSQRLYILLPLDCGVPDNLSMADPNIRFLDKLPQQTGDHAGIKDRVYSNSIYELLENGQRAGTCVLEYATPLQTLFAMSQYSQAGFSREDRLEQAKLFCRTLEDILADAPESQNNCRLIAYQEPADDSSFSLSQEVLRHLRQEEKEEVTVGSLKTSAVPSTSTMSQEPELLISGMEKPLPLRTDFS
UniProt F1SMI2: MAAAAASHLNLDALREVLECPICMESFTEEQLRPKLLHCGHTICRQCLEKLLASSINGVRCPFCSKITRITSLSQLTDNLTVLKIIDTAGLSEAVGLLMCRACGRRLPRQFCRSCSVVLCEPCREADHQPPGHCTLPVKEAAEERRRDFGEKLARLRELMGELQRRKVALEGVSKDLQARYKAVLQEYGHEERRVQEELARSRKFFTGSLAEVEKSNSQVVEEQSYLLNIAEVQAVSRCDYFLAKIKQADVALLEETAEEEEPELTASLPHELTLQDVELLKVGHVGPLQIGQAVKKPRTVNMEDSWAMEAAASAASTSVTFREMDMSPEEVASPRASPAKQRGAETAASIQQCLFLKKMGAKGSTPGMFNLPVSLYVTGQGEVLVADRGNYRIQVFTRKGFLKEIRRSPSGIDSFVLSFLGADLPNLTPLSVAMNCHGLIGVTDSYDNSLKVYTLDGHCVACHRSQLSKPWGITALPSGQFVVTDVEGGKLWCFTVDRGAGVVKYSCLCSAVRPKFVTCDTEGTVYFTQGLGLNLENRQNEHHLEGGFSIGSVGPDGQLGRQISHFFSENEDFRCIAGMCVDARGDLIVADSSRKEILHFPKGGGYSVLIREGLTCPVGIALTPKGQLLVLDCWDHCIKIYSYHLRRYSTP

TRIM32 (as used in the co-IP with STING, Fig. 7B-D) (from UniProt F1SMI2 1-652)
binding: binds

Reference: PMC12455967
